Z-score data for 107 sequences are collected here from PubChem BioAssay AID1508600 (Functional Genomics Laboratory (NCATS/FGL), 2020).

About 3,700 (7%) of roughly 53,000 sequences were called active.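 How the source made its calls: active means gene knockdowns whose robust z-score for IL-1 alpha signal is at least 2 or at most -2, so actives lie on both sides; inactive means the rest.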 Some of the results follow.

This assay can be described thus: Components of the Cytosolic LPS Sensing Pathway: Gene Identification via Genome-wide siRNA Screen.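 Further: robust z of the log signal after scaling to non-targeting control siRNA wells of the plate.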 The settings on record: RAW264.7 macrophages, IL-1a HTRF, actives lie on both sides, screened at 100 nM (by protocol), cells primed 5 h with Pam3CSK4 first. In short, it runs like this: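 RAW264.7; siRNA 100 nM final, RNAiMAX, 48h 37 degrees C; Pam3CSK4 5 h; LipidA + TransIT-TKO 24 h; IL-1a HTRF; CellTiter-Glo viability; robust z vs negative-control median.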
With GGGAUUGUUCGAGUUGUCUTT against Phtf2, the z-score is inactive: -1.41.

Regarding GGAAAACACACUUUUCUUUTT against Thap2, the z-score is inactive: -0.119.

As for GGUGUUAUCAGAAUUCAGATT against Cars, the z-score was active: 2.6.

GGCACACCUUUUGUUAGUGTT against Ywhag: the z-score was inactive: -1.94.

Consider CCUAAUAAAAUCGAAACAGTT against Alox8, for which the z-score was inactive: -0.415.

On to GGAACCUUCUUCCUGAUGATT against Oprm1, for which the z-score is inactive: -0.797.

GGGCUCGUCAUGAUAUUUGTT against Rnf41: the z-score was inactive: 0.166.

Take GGGUGAUGUUCUUCCUGGATT against Gpcpd1: the z-score is inactive: 0.275.

For the sequence GGUUUUUUUGCUAAUUAGCTT against Chid1, the z-score is inactive: 0.472.

Take CGUGUGGUAACUUGAAGGGTT against Sp140: the z-score was inactive: -0.456.

Regarding GGGACUGUGGAUGGAAUGUTT against Cldn14, the z-score was inactive: 0.144.

Take CGUUGUGAGGUUAUACGACTT against Tbc1d20: the z-score was inactive: -0.862.

For the sequence GGAACACAGUUCUCUGAGATT against Ighmbp2, the z-score was inactive: -0.68.

Take GGUACAAAGACUGACGAGUTT against Gnptg: the z-score was inactive: 0.00278.

Take CCUUACUUGUUCUCAUUUGTT against Spsb1: the z-score was inactive: 0.971.

Take CCAACAUGCUCUAUCUUUUTT against Oacyl: the z-score was inactive: 0.434.

Consider CGUAUGUAUGCCAACCUGGTT against Arhgap39, for which the z-score was inactive: -1.05.

ACAUGGGAGUAUUUGAUCCTT against Cnih4: the z-score was inactive: -1.23.

GGAGGUUCAGAAAUUUGUCTT against Nhp2: the z-score was inactive: -0.796.

On to GGGCUCAACAGUUUCAACCTT against Mrpl4, for which the z-score was inactive: 1.17.

Take CGAAUAGUUCCAGAAGACGTT against Cass4: the z-score is inactive: 1.86.

Consider GGACCUUUAAAGCUAAGCUTT against Ccn5, for which the z-score is inactive: -1.4.

Regarding CCAAAUGGUGGUGCUGAGUTT against Igsf5, the z-score is inactive: -1.87.

Turning to GGCAACUCUUAAAAAACCATT against Igfbpl1, the z-score was inactive: -0.665.

With GCAGGGUGUCUACUUGUUGTT against Gata4, the z-score is inactive: -0.129.

Take GCUGCAUAGAUUCCAUAAUTT against Lxn: the z-score was inactive: 0.468.

On to “GUCUUUAACUCUCCUAUGUTT against 2310034C09Rik”, for which the z-score is inactive: -0.809.

CGAGUUCAUCAAAAAGGAATT against Kansl1l: the z-score is inactive: 0.708.

GGCAUAGGAAAAACAUGAATT against C1qtnf1: the z-score was inactive: -1.66.

Consider GGUUUCUAUUGUGUUCAUUTT against Birc2, for which the z-score was inactive: -0.771.

Turning to GGAAGUUUAGUCUCAAAACTT against Csnk1d, the z-score is inactive: 1.64.

In the case of GGCUCAAGAAACUGGAGCUTT against Usp21, the z-score was inactive: 1.51.

Turning to AAUGACCUUGACAACAUUUTT against Pdp2, the z-score was inactive: 1.89.

On to GGACAGAAAUGGUAAAGAATT against Csde1, for which the z-score was inactive: -0.994.

For the sequence GGAGCACUUGAUUAAACAUTT against Syt10, the z-score is inactive: 1.49.

As for GGUUCAGACACCACUUCAGTT against Bgn, the z-score was active: 2.56.

Turning to GGUACUAAAUCAAACAUCCTT against Angpt1, the z-score is inactive: 0.578.

As to GGACAUCCCAGACAAUUUUTT against Lxn, the z-score was inactive: -0.986.

Consider CCGAGAUGAUUAUUCAUAATT against Slc17a6, for which the z-score is inactive: -0.327.

Consider GCUUCCUCGUAUCUACACCTT against Phb, for which the z-score was inactive: 1.92.

Turning to GGAAUGCAAAAAACUCUGGTT against Gzmg, the z-score was inactive: 0.906.

On to CGUUCUCUUGAAAUAAGCCTT against Pogk, for which the z-score is inactive: -0.147.

With GGAACUGACUGCCUAUUCCTT against Gnb3, the z-score is inactive: 1.08.

For GCCUUUACUGGAUUCAUUGTT against Acadm, the z-score was active: 2.53.

Take GGUGAACAUUAACAACAGUTT against Ngf: the z-score is inactive: -1.47.

For the sequence GGUACAGUAUGAUACUCACTT against Olfr678, the z-score is inactive: 0.982.

As for CGUUUUCAGAGAUGUGCGCTT against Cmtm5, the z-score is inactive: -1.

As to GCAAACCAUGCCUAAUGGATT against Meak7, the z-score was inactive: 1.68.

Take GGAUGUGGGUGGAUAUCAUTT against Sit1: the z-score was inactive: 0.145.

Take GGACAAAGUACAUUUAUGGTT against Il7r: the z-score was inactive: -1.39.

Regarding GGAAGGUAGUGCUAAUCAGTT against Neil2, the z-score is inactive: -0.622.

With GCUGGUUACAUAAAGCUACTT against Slc25a51, the z-score was inactive: 0.0694.

Turning to GGGAAGAAAUAAAAGAAACTT against Haus7, the z-score was inactive: -0.841.

In the case of GGAAAAACAAGAAAGGGAATT against Cdyl, the z-score is inactive: -0.411.

GGAAAUGUGGAGAGAAAAUTT against P2ry4: the z-score is inactive: 1.02.

As to CGUGGCUCAAAUUUUCAACTT against Cab39, the z-score is inactive: 1.5.

On to CCAUUGCAGCAUACUGUCCTT against Serpina1b, for which the z-score was inactive: -0.402.

For the sequence CCUACUGGAGUCUCCUCUUTT against Tmem116, the z-score is inactive: 0.36.

For the sequence GGAGCUAUGAUGGCGAUUUTT against Tmtc4, the z-score was inactive: -0.272.

Take GCCAACCAAAACCUAAGCATT against Gjc1: the z-score was inactive: -1.44.

For GGUGGAACAAGAAGAGUCCTT against Zkscan3, the z-score is inactive: -0.826.

GGAUGUCCUGAAAGUAGUUTT against Plscr1: the z-score is inactive: -1.03.

Consider GCAGGUUCGAAUUCAAGGATT against Gria4, for which the z-score was inactive: 0.483.

As for CGACGACGAGUUUCUCCAUTT against Timm29, the z-score was inactive: -1.86.

For the sequence GGACGGUCCUCUUAAAAGATT against Chat, the z-score is inactive: -0.394.

With GGACCCUGAUGAGAUGAAUTT against Gcg, the z-score was inactive: -0.687.

GGCCAAAGCCAGAAUCUCATT against Zfp281: the z-score is active: 3.07.

As to GGUGGACUAUCCUAAGCACTT against Pdzd4, the z-score is inactive: -1.18.

As for ACAUUUUCCGAGGCUUGGUTT against Rtn4rl2, the z-score is inactive: -0.936.

GGUAUUGAACCAUGGCUUATT against Mcts1: the z-score was inactive: -0.456.

For GGGUUCAGAAUAGAAAGAUTT against Tmigd1, the z-score is inactive: -1.28.

As to GGCUGGAUAAAAAUAACUUTT against Heyl, the z-score was inactive: 0.299.

As to GGAAUGGUAGAAGCAACAGTT against Kcnj5, the z-score is inactive: -0.844.

GGCUGGUGUAAUCGAAACATT against Ttc39c: the z-score was inactive: 0.0501.

As to GCAAUCAACAUUGAGAUGUTT against Rufy2, the z-score was inactive: -0.15.

Turning to GUUAGAUGCCCUCAAGUUCTT against Trappc6a, the z-score was inactive: -0.857.

As for GCUCAUUAACGAGAAAGUGTT against Atxn7l2, the z-score was inactive: -0.991.

In the case of GGAUAUACCCUGUUCUAGGTT against Them6, the z-score is inactive: 0.183.

Turning to GGAGAUCAAUCUAGAUUUGTT against Atpaf1, the z-score was inactive: 1.05.

Turning to GGAGUGCAGUACAAAGGACTT against Ahsa1, the z-score is inactive: 0.872.

Turning to GCCUCAGUUAUUUAAUGAATT against Mpp3, the z-score was inactive: -0.414.

On to “GGAGCAGGUUACCAGAAAATT against E130114P18Rik”, for which the z-score was inactive: 0.301.

In the case of GGCAGAGUAAGAGUGCACUTT against Olfr1238, the z-score was inactive: -0.622.

GGAACAAAGUUAAAUCCAATT against Vsig1: the z-score is inactive: -1.31.

Turning to GCAGAAUGUCACUAAGUGCTT against Sdcbp2, the z-score is inactive: 0.271.

For GGAGACACAGGAGAGAUACTT against Brd8, the z-score was inactive: 0.241.

On to GGCUUUCCGGAGUGAUAGUTT against Scamp3, for which the z-score is inactive: -0.696.

On to GCAGUGUAACAUGAUCAAUTT against Scarb1, for which the z-score is inactive: 1.42.

As for GGCCAAAGAGAUGCUGAAGTT against Spire2, the z-score was inactive: 1.35.

For the sequence CCCUGAUUGAUCGGUCUUGTT against Rundc3b, the z-score is inactive: 0.452.

Regarding GGGUGUGAAAGUUGUCUUCTT against Foxb1, the z-score was inactive: 1.4.

CGCAGCAUUGUUAGAUAUUTT against Adss: the z-score was inactive: 0.98.

On to GGUCAUCGGUACCACCAGATT against Rdh8, for which the z-score was inactive: 0.745.

In the case of CCUCGAGUCAUGGUGUAUCTT against Ndufb9, the z-score was inactive: 0.301.

Consider GCGACACACCAGAAGUUAUTT against Fgf7, for which the z-score is inactive: 1.1.

Turning to GCACACUGAUGAACUUACCTT against Ston2, the z-score was active: 2.55.

On to GGACCUGUCCCGUCAAAGATT against Ecrg4, for which the z-score is inactive: 0.607.

Take CCUAAAUUCUUCACCUUCGTT against Tor4a: the z-score was inactive: -0.275.

In the case of GCUACUAUGUGCCCUGAUATT against Ms4a7, the z-score is inactive: -0.458.

For GGCAUUAAUAGACCAGUUATT against Pcmt1, the z-score is inactive: -1.24.

As to GGAACAUUCCAGAAUAUCATT against Stkld1, the z-score was inactive: -0.266.

With CCAAUUGGGCCACACGUAATT against Tial1, the z-score was inactive: 1.15.

In the case of GUAAGGGCGGUUCUAAGAGTT against Ggnbp1, the z-score was inactive: 1.27.

For GCGAAAGAGAGAGUGACUUTT against Olfr812, the z-score was inactive: 0.829.

For the sequence GGAGAAUCUUAGAGAUUAUTT against Pramel1, the z-score is inactive: 0.722.

GGUUGAUGAUGUUGUGAAATT against Mrps15: the z-score was inactive: 0.427.

As for GGCUGUUGUAUUCAGACCATT against Ackr3, the z-score was inactive: -0.399.
